According to paper PMC9849758, “Chemically diverse activity-based probes with unexpected inhibitory mechanisms targeting trypsin-like serine proteases” (Frontiers in Chemistry, 2023):
Structures were worked out from names or drawings and are uncertain.

Chains of the proteins cited; added tags and fusions are not shown. Residues count along the entry.
UniProt P20231, 31-275 limits assumed: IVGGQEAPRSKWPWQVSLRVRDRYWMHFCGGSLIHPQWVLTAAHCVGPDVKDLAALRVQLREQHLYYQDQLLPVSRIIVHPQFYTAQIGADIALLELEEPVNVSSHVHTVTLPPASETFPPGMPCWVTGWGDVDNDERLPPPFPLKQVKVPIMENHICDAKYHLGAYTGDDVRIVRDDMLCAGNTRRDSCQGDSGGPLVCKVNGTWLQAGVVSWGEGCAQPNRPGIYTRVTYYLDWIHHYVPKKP
UniProt P08246, 30-267 limits assumed: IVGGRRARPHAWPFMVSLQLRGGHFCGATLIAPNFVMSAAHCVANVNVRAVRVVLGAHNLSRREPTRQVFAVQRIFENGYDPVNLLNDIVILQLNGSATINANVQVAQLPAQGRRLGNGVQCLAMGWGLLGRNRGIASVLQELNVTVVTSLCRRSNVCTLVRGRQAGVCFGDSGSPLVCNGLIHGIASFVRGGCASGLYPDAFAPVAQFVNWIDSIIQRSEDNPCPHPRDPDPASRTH
UniProt P08311, 21-255 limits assumed: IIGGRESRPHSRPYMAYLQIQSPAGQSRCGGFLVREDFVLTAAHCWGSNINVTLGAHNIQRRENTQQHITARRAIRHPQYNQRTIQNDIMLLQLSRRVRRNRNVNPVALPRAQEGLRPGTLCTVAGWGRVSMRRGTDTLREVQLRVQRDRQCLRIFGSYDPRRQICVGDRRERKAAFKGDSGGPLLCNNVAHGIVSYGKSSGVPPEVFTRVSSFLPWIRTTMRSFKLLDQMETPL
UniProt P35030, whole entry: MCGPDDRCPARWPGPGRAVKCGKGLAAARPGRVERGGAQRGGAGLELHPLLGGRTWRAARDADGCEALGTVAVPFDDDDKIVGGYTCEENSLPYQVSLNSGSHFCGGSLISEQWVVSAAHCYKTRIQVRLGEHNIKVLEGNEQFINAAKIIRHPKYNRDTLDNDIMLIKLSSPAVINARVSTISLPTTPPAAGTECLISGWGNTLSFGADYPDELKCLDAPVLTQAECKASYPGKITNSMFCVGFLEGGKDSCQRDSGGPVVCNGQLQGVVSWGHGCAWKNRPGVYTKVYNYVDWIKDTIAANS

What was measured:
Type in all cases: biochemical
[1] = biological target: Thrombin (Homo sapiens, UniProt P00734); experiment: Kinetic progress curves (kapp, K1, KI*, mechanism); conditions: apparent second-order rate constant from progress curves; mean ± SD; tested form: TFA
Protocol: (§1) Because the compounds described in this paper were previously described as irreversible inhibitors, the IC50 value is inversely correlated with the second-order rate constant of inactivation. For a simple pseudo-first-order inactivation process, the activity after incubation with inhibitor (vi) varies with the inhibitor concentration (i), as described in the following equation: vi=v0·e^−kit where v0 is the activity in the absence of an inhibitor, k is the second-order rate constant of inactivation, and t is the time. The inactivation rate constant was determined from the time course of inhibition.
(§2) Kinetic assays were performed in the following manner. The inhibitor was mixed with the substrate, and the buffer solution with the enzyme was added at the time zero. The progress curves show the release of pNA or AMC as a function of time. Initially, no inhibitor is bound to the enzyme, and the tangent to the progress curve (dA/dt) is proportional to the free enzyme concentration. The free enzyme concentration decreases over time due to inhibitor binding kinetics, as described above. Progress curves were recorded in pseudo-first-order conditions ([I]0>>[E]0) and with less than 10% conversion of the substrate during the entire time course. In these conditions, dA/dt decreases exponentially with time. The progress curves were fitted with the integrated rate equation with GraFit7 to yield a value for kobs, a pseudo-first-order rate constant. At=Ao+vs∙t+vi−vs∙1−e^−kobs∙t/kobs where At is the absorbance at time t, A0 is the absorbance at time zero, vi is the initial rate and vs is the velocity at the steady-state.
(§3) The apparent second-order rate constant (kapp) was calculated from the slope of the linear part of the plot of kobs vs. the inhibitor concentration ([I]0). […]

[2] = biological target: β-tryptase (Homo sapiens, UniProt P20231); experiment: Kinetic progress curves (kapp, K1, KI*, mechanism); conditions: apparent second-order rate constant from progress curves; mean ± SD; tested form: TFA
Protocol: as §1, §2, §3

[3] = biological target: Neutrophil Elastase (recombinant neutrophil elastase) (Homo sapiens, UniProt P08246); experiment: IC50 determination, spectrophotometric protease assay; conditions: read-out: NE IC50; alkyne probes; 15 min preincubation at 37°C; mean ± SD; tested form: TFA
Protocol: (§4) The IC50 value is defined as the concentration of inhibitor required to reduce the enzyme activity to 50% after a 15 min preincubation with the enzyme at 37°C before the addition of the substrate. The IC50 values were determined using a spectrophotometric assay. All the experiments were conducted in duplicate. The readout consisted of evaluating the protease-mediated release of the chromophore para-nitroaniline (pNA) or fluorophore 7-amino-4-methyl coumarin (AMC) moieties from the respective substrates. Enzymatic activity was measured for 30 min at 37°C. All compounds were initially screened at three concentrations (10, 1, and .1 μM) to estimate the range of the IC50 value. Those which were able to reduce protease activity by at least 50% at a concentration of 10 μM were submitted to an exact IC50 determination. […] A third independent experiment was performed when the standard deviation of the two independent experiments was higher than […]. IC50 values were obtained by fitting the data with the four-parameter logistics equation using GraphPad Prism 9.
(§5) The conditions for each protease are described as follows, the concentration of substrate used was at the corresponding Km.
(§6) Trypsin-3 (recombinant trypsin-3, R&D) and fluorogenic substrate tosyl-Gly-Pro-Arg-AMC (Km = 22.5 μM) were used in Tris buffer (100 mM Tris, 1 mM CaCl2) at pH 8.0 (25°C). Tryptase (recombinant tryptase β-2, EnzoLife Sciences) and fluorogenic substrate Boc-Gln-Ala-Arg-AMC (Km = 250 μM) were used in Tris buffer (50 mM Tris, 120 mM NaCl, .1 mg/ml BSA, .1 mg/ml heparin) at pH 8.0 (25°C). Thrombin (recombinant thrombin, R&D) and fluorogenic substrate Boc-Val-Pro-Arg-AMC (Km = 15 μM) were used in TRIS buffer (50 mM Tris HCl, 50 mM Tris base, 10 mM CaCl2, 150 mM NaCl) at pH 8.3 (25°C). uPA (recombinant urokinase plasminogen activator, HYPHEN BioMed) and chromogenic substrate pyro-Glu-Gly-Arg-pNA (Km = 80 μM) were used in HEPES buffer (50 mM HEPES) at pH 8.1 (25°C). Cathepsin G (cathepsin G human neutrophil, Sigma-Aldrich) and fluorogenic substrate Suc-Ala-Ala-Pro-Phe-AMC (Km = 130 μM) were used in Tris buffer (50 mM Tris, 120 mM NaCl) at pH 8.0 (25°C). TLCK-treated pancreatic bovine chymotrypsin (Sigma-Aldrich) and fluorescent substrate Suc-Ala-Ala-Pro-Phe-AMC (Km = 58 μM) were used in Tris buffer (50 mM Tris, 20 mM CaCl2) at pH 8.3 (25°C). Neutrophil Elastase (recombinant neutrophil elastase, Enzo LifeSciences) and fluorogenic substrate Suc-Ala-Ala-Pro-Val-AMC (Km = 500 μM) were used in Tris buffer (50 mM Tris, 120 mM NaCl) at pH 8.0 (25°C).

[4] = biological target: Cathepsin G (cathepsin G human neutrophil) (Homo sapiens, UniProt P08311); experiment: as above; conditions: read-out: CatG IC50; alkyne probes; 15 min preincubation at 37°C; mean ± SD; tested form: TFA
Protocol: as §4, §5, §6

[5] = biological target: Trypsin-3 (recombinant trypsin-3) (Homo sapiens, UniProt P35030); experiment: as above; conditions: read-out: Trypsin-3 IC50; alkyne probes; 15 min preincubation at 37°C; mean ± SD; tested form: TFA
Protocol: as §4, §5, §6

[6] = biological target: β-tryptase (recombinant tryptase β-2) (Homo sapiens, UniProt P20231); experiment: as above; conditions: read-out: β-tryptase IC50; alkyne probes; 15 min preincubation at 37°C; mean ± SD; tested form: TFA
Protocol: as §4, §5, §6

[7] = biological target: Thrombin (recombinant thrombin) (Homo sapiens, UniProt P00734); experiment: as above; conditions: read-out: Thrombin IC50; alkyne probes; 15 min preincubation at 37°C; mean ± SD; tested form: TFA
Protocol: as §4, §5, §6

[8] = biological target: TLCK-treated pancreatic bovine chymotrypsin (Bos taurus, UniProt P00766); experiment: as above; conditions: read-out: ChTryp IC50; alkyne probes; 15 min preincubation at 37°C; mean ± SD; tested form: TFA
Protocol: as §4, §5, §6

[9] = biological target: uPA (recombinant urokinase plasminogen activator) (Homo sapiens, UniProt P00749); experiment: as above; conditions: read-out: uPA IC50; alkyne probes; 15 min preincubation at 37°C; mean ± SD; tested form: TFA
Protocol: as §4, §5, §6

C#CCCCC(=O)N1CCCC1C(=O)NC(CCCCN)P(=O)(Oc1ccccc1)Oc1ccccc1 (stereo not drawn)
Thrombin kapp [1]: 13 × 10^2 ± 5 M^−1 s^−1 | β-tryptase kapp [2]: 136 ± 3 M⁻¹ s⁻¹ | IC50 [3]: > 10000 nM | IC50 [4]: > 10000 nM | IC50 [5]: 90 nM | IC50 [6]: 2980 nM | IC50 [7]: 180 nM | IC50 [8]: > 10000 nM | IC50 [9]: 2520 nM
